One test deals with piglet tracheal rings. In words: Airway narrowing: lumen area of thin sliced tracheal rings, methacholine. The arrangement: species or system pig. The following applies: methacholine preceded by 10 mM formoterol.
The subject of the next test is ex vivo WT pig tracheas. The test can be described thus: ASL height by synchrotron-based phase contrast imaging. Here is the method:
ASL heights were determined in pig tracheal preparations using synchrotron-based phase contrast imaging (PCI). The synchrotron beamline produces enough parallel spatial coherence X-ray to increase the contrast between airway lumen and ASL layer by PCI. When X-rays pass through the intact tracheal preparation, the difference in refractive index between ASL and airway lumen results in a phase shift of X-rays that causes a distinctive interference pattern shown on the charge-coupled device (CCD) detector as variations in X-ray intensity.

`COc1ccc(CC(C)NCC(O)c2ccc(O)c(NC=O)c2)cc1` (centres unmarked) [formoterol]: the “transient decrease of lumen area induced by methacholine when preceded by formoterol” value in the test on piglet tracheal rings is on record as 5-10%. For the same molecule, the “effect on ASL height” value in the test on ex vivo WT pig tracheas was “increased ASL heights”.

The record behind these values is patent US20260083698A1, “Synergistic Stimulation of Mucociliary Clearance to Treat Mucus Obstruction in Cystic Fibrosis and Other Muco-Obstructive Disorders” (The Board of Trustees of the Leland Stanford Junior …, priority 2022, published 2026).
